# Screening data, single-dose tests

Amino acid sequences for entries named in this document (tags omitted). Residues count along the entry.
UniProt I6X8D2, whole entry: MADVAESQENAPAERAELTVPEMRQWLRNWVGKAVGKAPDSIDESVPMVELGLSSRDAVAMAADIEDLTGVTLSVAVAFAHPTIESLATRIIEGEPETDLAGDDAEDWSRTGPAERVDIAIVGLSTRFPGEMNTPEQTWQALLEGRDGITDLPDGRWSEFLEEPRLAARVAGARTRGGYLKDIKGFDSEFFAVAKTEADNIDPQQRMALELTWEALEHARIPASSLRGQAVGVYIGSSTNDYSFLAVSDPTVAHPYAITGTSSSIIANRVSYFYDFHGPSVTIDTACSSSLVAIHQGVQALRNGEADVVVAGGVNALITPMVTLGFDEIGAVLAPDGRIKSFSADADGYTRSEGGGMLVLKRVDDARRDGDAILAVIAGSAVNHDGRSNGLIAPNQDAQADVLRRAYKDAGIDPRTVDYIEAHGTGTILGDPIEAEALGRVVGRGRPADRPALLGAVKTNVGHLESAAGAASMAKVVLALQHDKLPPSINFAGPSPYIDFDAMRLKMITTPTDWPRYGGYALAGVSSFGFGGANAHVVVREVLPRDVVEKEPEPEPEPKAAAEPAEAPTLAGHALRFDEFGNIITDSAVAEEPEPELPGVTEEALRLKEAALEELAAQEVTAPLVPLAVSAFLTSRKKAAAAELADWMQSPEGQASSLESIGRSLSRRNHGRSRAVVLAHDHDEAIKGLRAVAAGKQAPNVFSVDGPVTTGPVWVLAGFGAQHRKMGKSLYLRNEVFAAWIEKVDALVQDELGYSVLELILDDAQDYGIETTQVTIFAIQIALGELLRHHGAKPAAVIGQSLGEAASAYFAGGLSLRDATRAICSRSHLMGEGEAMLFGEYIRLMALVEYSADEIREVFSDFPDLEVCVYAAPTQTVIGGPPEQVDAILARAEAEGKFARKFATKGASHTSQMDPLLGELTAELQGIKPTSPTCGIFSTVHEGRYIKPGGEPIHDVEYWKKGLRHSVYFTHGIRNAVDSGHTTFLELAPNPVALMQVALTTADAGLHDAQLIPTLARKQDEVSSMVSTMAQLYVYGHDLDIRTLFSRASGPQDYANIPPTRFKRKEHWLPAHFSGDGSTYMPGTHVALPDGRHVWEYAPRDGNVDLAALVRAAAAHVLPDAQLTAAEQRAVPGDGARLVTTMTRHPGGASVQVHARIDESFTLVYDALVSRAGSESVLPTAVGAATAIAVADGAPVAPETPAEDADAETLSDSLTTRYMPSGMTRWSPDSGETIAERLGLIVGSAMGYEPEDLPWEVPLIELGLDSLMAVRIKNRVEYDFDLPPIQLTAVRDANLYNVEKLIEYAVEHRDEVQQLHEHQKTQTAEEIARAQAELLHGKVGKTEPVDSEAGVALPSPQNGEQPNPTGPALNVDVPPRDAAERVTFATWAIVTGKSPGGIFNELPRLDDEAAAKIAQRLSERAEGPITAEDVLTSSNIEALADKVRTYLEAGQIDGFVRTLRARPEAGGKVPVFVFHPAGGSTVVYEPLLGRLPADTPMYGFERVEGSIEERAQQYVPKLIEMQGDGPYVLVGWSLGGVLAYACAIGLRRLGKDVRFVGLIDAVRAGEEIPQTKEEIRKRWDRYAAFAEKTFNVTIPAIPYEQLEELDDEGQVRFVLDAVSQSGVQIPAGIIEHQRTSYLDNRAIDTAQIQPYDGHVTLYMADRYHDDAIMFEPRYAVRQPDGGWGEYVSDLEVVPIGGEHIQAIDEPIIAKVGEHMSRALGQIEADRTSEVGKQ
UniProt Q4DA54, 1-478: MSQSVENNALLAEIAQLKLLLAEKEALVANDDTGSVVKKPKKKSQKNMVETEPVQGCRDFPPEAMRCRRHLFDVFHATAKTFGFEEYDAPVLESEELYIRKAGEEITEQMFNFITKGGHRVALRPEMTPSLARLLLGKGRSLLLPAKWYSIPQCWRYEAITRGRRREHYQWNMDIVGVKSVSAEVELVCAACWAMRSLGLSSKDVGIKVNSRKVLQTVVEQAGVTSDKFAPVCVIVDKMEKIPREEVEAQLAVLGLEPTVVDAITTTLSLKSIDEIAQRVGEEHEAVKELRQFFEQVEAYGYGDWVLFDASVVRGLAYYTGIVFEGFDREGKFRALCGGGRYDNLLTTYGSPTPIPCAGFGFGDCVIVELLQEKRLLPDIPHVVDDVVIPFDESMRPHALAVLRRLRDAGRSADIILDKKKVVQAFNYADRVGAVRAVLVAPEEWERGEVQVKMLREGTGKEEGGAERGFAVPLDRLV
UniProt P9WPC5, whole entry: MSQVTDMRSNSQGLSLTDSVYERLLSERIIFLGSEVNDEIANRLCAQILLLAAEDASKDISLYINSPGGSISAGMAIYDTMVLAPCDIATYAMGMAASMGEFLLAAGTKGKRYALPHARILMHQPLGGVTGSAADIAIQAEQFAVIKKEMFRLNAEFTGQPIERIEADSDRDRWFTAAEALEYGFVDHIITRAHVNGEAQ
UniProt P9WPC3, whole entry partner: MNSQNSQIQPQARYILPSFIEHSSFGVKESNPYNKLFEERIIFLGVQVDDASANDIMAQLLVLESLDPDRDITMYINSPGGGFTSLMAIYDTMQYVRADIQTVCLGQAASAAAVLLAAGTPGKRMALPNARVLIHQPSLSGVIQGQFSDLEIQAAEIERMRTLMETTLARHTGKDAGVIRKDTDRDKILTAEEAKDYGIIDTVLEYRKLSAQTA
UniProt A4I591, 1-473: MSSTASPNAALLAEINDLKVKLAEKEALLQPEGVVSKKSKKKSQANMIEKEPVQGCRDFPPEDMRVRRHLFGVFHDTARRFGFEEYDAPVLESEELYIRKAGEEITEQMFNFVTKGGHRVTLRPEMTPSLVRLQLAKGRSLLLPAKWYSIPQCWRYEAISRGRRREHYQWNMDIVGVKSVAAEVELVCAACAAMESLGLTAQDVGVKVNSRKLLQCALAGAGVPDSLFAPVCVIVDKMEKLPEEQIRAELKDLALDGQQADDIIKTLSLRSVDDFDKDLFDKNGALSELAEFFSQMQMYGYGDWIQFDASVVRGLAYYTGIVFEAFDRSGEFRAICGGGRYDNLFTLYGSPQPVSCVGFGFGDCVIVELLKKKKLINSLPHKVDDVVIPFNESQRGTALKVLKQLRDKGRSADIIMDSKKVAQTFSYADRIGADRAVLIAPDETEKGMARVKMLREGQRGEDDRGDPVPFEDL

Source: ChEMBL document CHEMBL3988442, “University of Dundee, Small-Polar-MMV Screening Library” (2021).

Values are the deposited “Percent Effect”, in %. The controls that fix the scale are not given in the record; negative values are as filed. Compounds were drawn at random from those tested, without regard to their results. Two or more numbers in one place are separate tests of the same structure; such repeats can differ widely. A dash means the value is not listed here; it may have been measured.

Pks13 thioesterase: 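Enzyme assay of the thioesterase domain of polyketide synthase 13; the read-out is not stated. Target: Polyketide synthase Pks13, Mycobacterium tuberculosis (UniProt I6X8D2). Concentration: 30 µM. Higher reads as stronger inhibition (inferred from which compounds were picked for retests). Of about 67,000 compounds tested this way, about 300 (0.46%) reached 50% or more in at least one test.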
TcHisRS: 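Histidine-tRNA ligase, Trypanosoma cruzi CL Brener (UniProt Q4DA54). Enzyme assay of histidyl-tRNA synthetase; the read-out is not stated. Concentration: 30 µM. The record gives no direction; compounds that gave an IC50 in retests scored well above the rest, so higher reads as stronger inhibition. Of about 69,000 compounds tested this way, about 31 (0.045%) reached 50% or more in at least one test.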
ClpP1P2: 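ClpP1P2, Mycobacterium tuberculosis (UniProt P9WPC5 and UniProt P9WPC3). Protease assay of ClpP1P2, read by the AMC dye that it sets free. Compounds at 50 µM. Direction is inferred from only a few compounds that gave an IC50; most scored high, so higher reads as stronger inhibition. Most other retested compounds had strongly negative values. Size under these conditions: about 69,000 compounds, about 10 of them at 50% or above in at least one test.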
Leishmania in macrophages: 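Cell assay of Leishmania donovani living inside macrophages; the read-out is not stated. Compounds at 30 µM. Higher reads as stronger inhibition (inferred: compounds with an IC50 in retests scored well above the rest). Size under these conditions: about 69,000 compounds, about 1,000 of them at 50% or above in at least one test.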
LiHisRS: 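Histidine-tRNA ligase, Leishmania infantum (UniProt A4I591). Enzyme assay of histidyl-tRNA synthetase; the read-out is not stated. Concentration: 30 µM. Higher reads as stronger inhibition (inferred: compounds with an IC50 in retests scored well above the rest). The assay is labelled LdHisRS but filed under L. infantum. Size under these conditions: about 69,000 compounds, about 410 of them at 50% or above in at least one test.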

Compound | Pks13 thioesterase | TcHisRS | ClpP1P2 | Leishmania in macrophages | LiHisRS
CCCNC(=O)COc1cc(C)c2c(C)nn(-c3ccccc3)c2n1 | -18.56% | 9% | -20.21% | -2.296% | 9.589%
COc1nonc1NCn1nc(C)cc1C | 27.68% | -4.624% | 6.409% | -8.905% | 14.43%
COc1ccc2cc(CN(C)C(C)c3nc(C4CC4)no3)ccc2c1 (stereo not drawn) | -2.134% | 1.657% | -4.619% | 57.64% | -43.66%
O=C(c1cscn1)N1CCC(Cn2cc(-c3ccsc3)nn2)CC1 | -21.03% | 0% | -1.875% | 28.85% | 6.557%
CC(c1ccco1)n1cc(-c2cc(CN3CCCC3)cs2)nn1 (stereo not drawn) | -39.53% | 4.046% | 11.62% | 11.46% | 49.33%
CC(=O)N1CCN(c2ccccc2CNc2cncc(C)c2)CC1 | -17.1% | 5.263% | -1.22% | 19.68% | 10.96%
CCc1ccc(CN2CCN(Cc3ncc[nH]3)[C@H]3CS(=O)(=O)C[C@H]32)nc1 | -7.95% | 1.667% | -8.378% | - | -30.19%
CS(=O)(=O)CC1CCCN(c2ncnc3c2Cc2ccccc2OC3)C1 (stereo not drawn) | 1.667% | 2.899% | -19.99% | -18.82% | 19.17%
CC(C)=CCN1CCN(C(=O)c2snnc2C)[C@H]2CS(=O)(=O)C[C@H]21 | -17.62% | 6.818% | 8.903% | - | 5%
COCCC(=O)Nc1ccnn1-c1ccccc1 | -16.7% | 3.017% | -2.383% | 14.22% | 6.329%
CC(C)N(C)S(=O)(=O)N1CCCC1C(=O)N1CCSCC1 (stereo not drawn) | -7.568% | 10.59% | -2.964% | -22.79% | 11.9%
Cc1cccc(C(=O)N2CCC[C@]3(C[C@@H](OCC4CC4)CO3)C2)n1 | -2.404% | 3.922% | -6.423% | - | 16%
Cc1cc(-c2nccs2)nc(C2CCN(Cc3ccncc3)CC2)n1 | 8.176% | 8.046% | -24.26% | - | 21.43%
Cc1noc([C@@H]2C[C@H]3OCC[C@H]3N(S(=O)(=O)c3ccccc3)C2)n1 | -2.664% | 8.04% | 2.429% | - | 13.83%
CN(C)C(=O)COC[C@H]1CC[C@@H]2[C@@H](CCN2Cc2ccccn2)O1 | 1.945% | 0.5348% | 0.02808% | - | 5.769%
Cc1nc(C2CCCN2CC(=O)Nc2cc(C(C)(C)C)nn2C)no1 (stereo not drawn) | - | 0.565% | -8.01% | 12.3% | 3.448%
CNc1cc(CNC(=O)c2ccnc(OC)c2)nc(-c2ccncc2)n1 | 10.88% | 8.791% | -5.194% | 25.64% & 5.362% | 15.94%
CC(NCc1cccs1)c1ccc(OCc2nccn2C)cc1 (stereo not drawn) | -19.6% | 9.392% | -7.69% | -37.76% | 7.229%
CCc1nnc(SCc2cc(=O)n3c4c(sc3n2)CCCC4)[nH]1 | -11.46% | 3.96% | -5.41% | 54.93% | 22.83%
CC(Cc1ccco1)NC(=O)Nc1ccc(N2CCOCC2)nc1 (stereo not drawn) | 4.005% | -1.141% | 7.406% | 12.05% | 40.8%
[H][C@@]12CN(Cc3ccccn3)C(=O)N1CCN(S(=O)(=O)c1ccccc1)C2 | - | - | - | 18.09% | -
CC(C)(C)C(O)CN1CCN(C(=O)COCC2CC2)CC1 (stereo not drawn) | -11.57% | 8.642% | -2.512% | 21.48% | 12.9%
CO[C@@H]1CC[C@H]2[C@H]1OCCN2C(=O)c1nn(C)c2ccccc12 | -19.01% | -22.22% | 14.45% | - | -49.06%
COc1ccccc1OCC(=O)NCC(C)(O)c1ccccc1 (stereo not drawn) | -15.33% | 3.614% | -20.68% | -17.46% & -12.19% | 12.82%
NC(=O)Cn1cc(NC(=O)N2CCSCC2)cn1 | -26.89% | 2.941% | -10.86% | -2.179% | 3.67%
CSCC[C@@H](CO)NC(=O)c1sc(-c2ccccc2Cl)nc1C | -24.73% | 2.924% | -2.582% | 19.78% | -2.632%
Cc1ccccc1OC1CN(Cc2c(C)nc3ccccn23)C1 | -12.33% | 3.03% | -8.674% | 56.4% | 21.31%
CNCc1cn(C[C@H]2C[C@@H]3CCN2C[C@@H]3C(=O)NC2CCCCC2)nn1 | -24.66% | -2.174% | 1.716% | - | 17.57%
CC(C)N1CCC2(CC1)C(=O)N(c1cccnc1)c1ccc(F)cc12.Cl | - | - | - | 33.09% | -
Cc1sc(CNS(N)(=O)=O)nc1-c1ccc(Cl)cc1 | 9.804% | 10.5% | -18.02% | -12.5% | 7.229%
O=C(O)C(F)(F)F.O=C(O)C(F)(F)F.[H][C@]12CCC[C@@]1(COCc1ccncc1)CN(C(=O)c1ccc(C)nc1)C2 | - | - | - | 7.283% & 8.207% | -

For reference, 2 entries once more:

Compound,Pks13 thioesterase,TcHisRS,ClpP1P2,Leishmania in macrophages,LiHisRS
CC(NCc1cccs1)c1ccc(OCc2nccn2C)cc1 (stereo not drawn),-19.6%,9.392%,-7.69%,-37.76%,7.229%
COc1ccc2cc(CN(C)C(C)c3nc(C4CC4)no3)ccc2c1 (stereo not drawn),-2.134%,1.657%,-4.619%,57.64%,-43.66%